Values quoted from earlier work in paper PMC10041529 (Journal of Medicinal Chemistry, 2023).

Test system: 235 kinases
Set-up: method as in PMID 21870818
Conditions: at 500 nM, of 235 kinases tested; cited from earlier work

Question: What does the source list for `O=C(O)c1ccc2c(c1)nc(Nc1cccc(Cl)c1)c1ccncc12` [CX-4945, 5-(3-Chlorophenylamino)benzo[c][2,6]naphthyridine-8-carboxylic Acid]?
Answer: number of kinases inhibited by more than 90%: 10; number of kinases whose activity was affected by more than 50%: 49
